Test results from the supplement of paper PMC3334620.
Whole data set: some 33,000 sequences, median “E-score (-0.5 to 0.5)” near -0.016, cut for the highest 2% near 0.3. This is one part of the list.

Biological target: T1, Yer184c (UniProt P39961)
T1 sequence: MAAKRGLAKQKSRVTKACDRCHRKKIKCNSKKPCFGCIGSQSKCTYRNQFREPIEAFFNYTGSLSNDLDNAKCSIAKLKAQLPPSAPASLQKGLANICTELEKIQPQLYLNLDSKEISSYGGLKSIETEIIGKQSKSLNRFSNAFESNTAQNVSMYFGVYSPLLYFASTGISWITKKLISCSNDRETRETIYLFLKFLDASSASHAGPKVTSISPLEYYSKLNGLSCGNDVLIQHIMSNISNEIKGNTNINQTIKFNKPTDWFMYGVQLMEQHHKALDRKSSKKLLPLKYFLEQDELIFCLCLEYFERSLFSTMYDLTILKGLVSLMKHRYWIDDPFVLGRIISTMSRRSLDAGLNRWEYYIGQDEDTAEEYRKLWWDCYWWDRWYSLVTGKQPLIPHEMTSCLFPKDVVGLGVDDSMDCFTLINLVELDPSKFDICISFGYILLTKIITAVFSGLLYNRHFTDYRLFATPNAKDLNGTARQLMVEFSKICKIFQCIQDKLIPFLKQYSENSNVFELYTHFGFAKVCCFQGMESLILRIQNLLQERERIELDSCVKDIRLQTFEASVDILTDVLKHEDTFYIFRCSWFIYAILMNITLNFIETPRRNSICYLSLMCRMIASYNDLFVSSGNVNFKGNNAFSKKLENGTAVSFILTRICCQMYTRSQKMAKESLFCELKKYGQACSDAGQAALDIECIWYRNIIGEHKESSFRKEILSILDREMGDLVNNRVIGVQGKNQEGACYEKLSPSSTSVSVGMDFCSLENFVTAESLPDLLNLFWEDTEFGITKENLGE
Test: PBM E-score (8-mer binding enrichment) (E-score (-0.5 to 0.5)); higher = stronger / more preferred TF binding
Conditions: protein concentration: 100 nM; construct: GST-full length
Method: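 Universal 'all 10-mer' protein binding microarrays (Agilent AMADID 015681) probed with GST-tagged S. cerevisiae TFs (full-length or DBD) made by in vitro transcription/translation (PURExpress), about 100-200 nM. Bound TF was detected with fluorescent anti-GST. Each ungapped 8-mer (which stands for itself and its reverse complement) is scored by the PBM enrichment score (E-score), a modified Wilcoxon-Mann-Whitney statistic from -0.5 to +0.5, computed with the Universal PBM Analysis Suite. Scale: above 0.35 generally sequence-specific binding.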

Sequence | PBM E-score
ATGTCTAG | 0.179
CCTCGGTA | -0.0209
ACGTCTTC | -0.0691
CGCGTTAG | 0.127
ACCTATGC | -0.248
CGGTGTAG | -0.089
ATAGTACA | 0.083
CCATTCTC | -0.00493
AGCTGCGC | -0.0697
TAAATCTA | 0.0882
AGGGAAGG | -0.344
ACTTGCGC | -0.0539
AAGCATCA | -0.0222
ACCACTTC | -0.122
AACGCAAT | 0.182
TCTCAAGA | -0.0209
GTCTTGGA | -0.154
CGTATGGC | 0.0401
AAGAGTAC | -0.00139
CCGCGCCC | -0.109
AATAGAGC | 0.0757
GGCCCGGA | 0.301
GCTCCCGA | -0.0688
CGAGGTCA | -0.0958
CAAAATCA | 0.0587

Sequence | PBM E-score
CACGGAAG | 0.149
GAGCGCGA | 0.0441
AACGTAGC | -0.185
ATGACTTA | -0.016
GCTGCTCC | -0.0809
ACCCTTCT | -0.267
TCCGCTAA | 0.0916
CGCCGTCA | -0.0816
CGCTGTAC | -0.117
ACATGGGC | -0.0112
TCGCTGCA | -0.0505
CTGGATTA | 0.151
TTACACAA | 0.233
CTGTAGAC | -0.0558
ATACTCGA | -0.0376
CGCGCGCG | 0.148
AAGACCGC | -0.0823
ACCAACTA | -0.0397
TCCGGAGA | 0.397
CATCATCG | -0.0011
CCACCTAG | -0.247
GCTGGGCA | 0.144
TAGGCAGA | 0.198
AGGTCCTC | -0.11
AGCGTGAA | -0.162

A section from further up, for reference:
Sequence | PBM E-score
TCGCTGCA | -0.0505
CTGGATTA | 0.151
TTACACAA | 0.233
CTGTAGAC | -0.0558
ATACTCGA | -0.0376
CGCGCGCG | 0.148

Following part:

Sequence | PBM E-score
ATTTACGA | 0.194
GAGTGATC | -0.11
ATCTGACC | 0.21
CCCTTAAA | -0.0406
ATTTCCAG | 0.0278
CCCATATC | -0.167
GCTTCTAA | -0.189
CGCAACAA | -0.00856
AAAACAAC | -0.0119
CCTCCATC | -0.235
CAGGTTGA | -0.207
CACATAGG | -0.256
ATTGCTTC | 0.00217
AAAATAAG | 0.106
CGAACGCA | 0.299
GCGCCTCA | -0.109
CCATGCAG | -0.124
ATCGCGGC | 0.213
CACTCAAG | -0.257
ACATTTCT | 0.145
AGGGCAAC | -0.00172
AACCGGCA | 0.238
GCTTAGAA | -0.0306
AATCCATC | -0.0869
CTGTAGCA | -0.154

Sequence | PBM E-score
CAAAGTTA | 0.0674
ATCTTAAT | 0.00364
CTGGTTAC | -0.239
GGCTCGGA | 0.187
CAAGCGAA | -0.114
TCGGCCCA | 0.265
ATTTGGGG | -0.185
AGCAACTA | 0.19
GAGGCGAC | -0.128
CCTTAGTC | -0.202
TCGTTACA | 0.00328
GGTAGGGA | -0.192
AAGGCCGG | 0.318
ACTTACAT | -0.00026
AGAAACAC | 0.0558
CCCGCTAC | -0.00669
GACGTCAC | -0.206
AAAAGGAT | 0.143
ACCATAAC | 0.0317
CCTCTGTC | -0.178
CACGTAAA | -0.00961
AGCGTGCC | -0.152
CTCAGTAC | -0.00937
ACTGGCTA | -0.119
GAGTTCCA | -0.0604

Sequence | PBM E-score
CGCCCCAA | -0.0397
GCTGTCCC | -0.111
CGTTTCTC | -0.00246
AGGAGTAG | 0.0149
AGATAGGA | -0.0667
ACATCGAA | 0.0282
CAACAAGA | 0.0211
AGGACCAA | -0.0299
CCACCTAC | -0.322
CATAAAAG | 0.0882
AACTCCAA | 0.0187
GGGCGGGA | 0.0538
AGCGTTTG | -0.106
CGGAGTGC | 0.226
ACAGGGGT | -0.411
AGCAGCAA | 0.0416
GCAGGCAC | -0.315
ACGACCGT | -0.267
AGGATCGC | -0.0928
CGAGTACA | 0.0359
ACCAACAC | 0.0322
CCGTCCAA | -0.024
ACTACCCT | -0.329
ACCCTTAA | -0.108
AGCTGCAC | -0.0993

Another view of some results above:
Sequence,PBM E-score
AGCAGCAA,0.0416
GCAGGCAC,-0.315

Following part.

Sequence | PBM E-score
GACTCCAC | -0.343
CTAAGAAA | 0.198
AACTCACA | 0.0709
CCAACCAC | -0.0234
TCGGGCCA | 0.0421
ACTCTTTG | -0.189
GTAATCAC | 0.0256
AGCGCACA | -0.207
CACGCGTG | 0.0284
TACCCAGA | -0.0631
CCGATCAG | 0.159
CGTAGTTA | 0.174
ATCGGGAA | 0.236
CCCCGTTC | -0.181
AACCGTAC | -0.0653
CACCGAAC | 0.143
ACGTTAAT | 0.117
GATAAGCC | 0.0247
ACCCACCG | -0.11
CCGCTCCA | -0.0411
CCCGTAAA | 0.0406
AGGCTCCA | -0.233
CATATTAG | 0.105
GACCGGTC | 0.195
GTATGTAA | 0.0628

Sequence | PBM E-score
GACCTTCC | -0.131
CACAATTA | -0.0124
ACACGGAC | 0.212
ATTCCTGG | -0.138
GCGGCCAA | -0.0147
ATTACTAG | 0.0017
GAAGGGGA | -0.201
ACATGGGA | -0.0714
GGCTTGTA | -0.219
CGGATCAC | 0.277
GCCTTACA | -0.205
AGACAGCC | -0.136
CCCTTTAA | 0.0626
TATACGGA | 0.136
AGTAAGCG | 0.0285
AAGTTCTC | 0.0984
TATGCTAA | 0.00189
CCACCGTC | -0.225
AAGTACCG | 0.189
CACGCCTG | -0.275
CTGAACGA | -0.0934
ATGCCGTA | 0.196
